{"source": "patent US20130309202A1", "about": "“Methods for Improving Liver Function” (The Ohio State University, priority 2012, published 2013)", "test": "Liver vitamin E concentration, Surgical Patients Group", "conditions": "TE supplemented participants", "note": "Some of these results come from one statement about several compounds together. At least one compound was matched to its structure with a doubt left."}
{"smiles": "CC(C)=CCC/C(C)=C/CC/C(C)=C/CC[C@]1(C)CCc2cc(O)c(C)c(C)c2O1", "note": "[γTE, d-gamma-tocotrienol]", "values": [{"measurement": "concentration in liver tissue relative to that found in adipose", "result": "less than 10%"}]}
